# Library screen at single concentrations

A: 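Assay of Toxoplasma gondii numbers, read through their beta-galactosidase reporter with a colour substrate. Tested at 10 µM. The record gives no direction; the compounds picked for IC50 retests had high values, so higher reads as fewer parasites. Size under these conditions: about 67,000 compounds, about 260 of them at 50% or above in at least one test.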
B: 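Whole-parasite assay of Trypanosoma brucei over 72 hours; the read-out is not stated. Concentration: 30 µM. The record gives no direction; compounds that gave an IC50 in retests scored well above the rest, so higher reads as stronger inhibition. Values scatter widely below zero; nearly all retest evidence comes from the higher of the two concentrations used. About 64,000 compounds were tested under these conditions; 1.5% (about 940) showed 50% or more at least once.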
C: 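Cell assay of Leishmania donovani living inside macrophages; the read-out is not stated. Concentration: 30 µM. Direction is inferred from retests: higher values go with stronger inhibition. About 69,000 compounds were tested under these conditions; 1.5% (about 1,000) showed 50% or more at least once.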

Each number is a percent effect as filed.
The record does not define 0% and 100%; most values in the screen are far below 50% and negative numbers occur (in some assays of this library far below -100).
Compounds were drawn at random from those tested, without regard to their results.
Two or more numbers in one place are separate tests of the same structure; such repeats can differ widely.

{"smiles": "CC(C)(CO)Nc1c(NCc2ccccc2)c(=O)c1=O", "A": -20.36, "B": -18.61, "C": "20.07 and 20.94"}
{"smiles": "Clc1cccc2c3c([nH]c12)CCN(Cc1cc2n(n1)CCNC2)C3", "A": 4.269, "B": -10.47, "C": 28.65}
{"smiles": "CC(C)n1nc(CN2CCCC2)c2c1CN(CC1CC1)CC2.O=C(O)C(F)(F)F.O=C(O)C(F)(F)F", "A": -0.9636, "B": -39.09, "C": 14.33}
{"smiles": "Nc1nccc(NCc2cc3n(n2)CCCN(C2CCCCC2)C3)n1", "A": 12.95, "B": -30.12, "C": 12.08}
{"smiles": "CN(Cc1ccccc1)C(=O)CCN1CCC2(CC1)[C@H](O)C[C@@H]2O", "A": -24.05, "C": 16.81}
{"smiles": "COCCC1CCN(CC(C)n2cnc3ccccc32)CC1", "stereo": "centres unmarked", "A": 9.385, "B": -6.31, "C": 1.167}
{"smiles": "O=C(Nc1ccccn1)c1ccc(F)c(S(=O)(=O)NC2CC2)c1", "A": 8.835, "B": -39.42, "C": 1.753}
{"smiles": "CC(=O)NCCNC(=O)c1cnc2c(c1)nc(-c1ccccc1Cl)n2C", "A": 10.38, "B": -5.527, "C": -7.758}
{"smiles": "N#Cc1ccc(C(=O)NS(=O)(=O)c2ccc(F)c(F)c2)cc1", "A": -5.036, "B": -30.71, "C": -14.37}
{"smiles": "CC(=O)c1ccc(N2CCC(CO)(CCOc3ccccc3)CC2)nc1", "A": 6.802, "B": 16.6, "C": -30.28}
{"smiles": "CNC(=O)c1ccc(=O)n(Cc2csc(N(C)C(C)=O)n2)c1", "A": -0.0778, "B": -27.29, "C": 17.82}
{"smiles": "Cc1cc(C(=O)NCC2CCCC2)c(C)n1-c1cccnc1", "A": -3.428, "B": -10.86, "C": 7.563}
{"smiles": "Cc1nc2n(n1)CCN(S(=O)(=O)c1ccc(OC(F)(F)F)cc1)C2", "A": -1.452, "B": -39.42, "C": 22.55}
{"smiles": "CN(Cc1ccno1)c1nc(C2CCCC2)nc2c1cnn2C", "A": 21.29, "B": -22.78, "C": 23.1}
{"smiles": "Cc1cc(C)c(N(CC(O)CNCc2ccco2)S(C)(=O)=O)c(C)c1.O=C(O)c1ccccc1", "stereo": "centres unmarked", "A": -13, "B": 0.6804, "C": 13.27}
{"smiles": "O=C(O)c1nnn(Cc2cccc(C(F)(F)F)c2)c1-c1ccccn1", "A": 1.339, "B": -37.84, "C": -5.034}
{"smiles": "CC1CN(Cc2noc(C3CC3)n2)CCN1Cc1noc(C2CC2)n1", "stereo": "centres unmarked", "A": 9.277, "C": 33.84}
{"smiles": "CSCCN1C(=O)CC(C)(c2ccc(Br)cc2)C1=O", "stereo": "centres unmarked", "A": -13.97, "B": 4.373, "C": 7.694}
{"smiles": "Cc1noc(C)c1CN1CCN(Cc2nccn2C)CC1", "A": -5.392, "B": 0.6508, "C": 25.25}
{"smiles": "OCc1csc(N2CCCC(CO)(Cc3cccc(Cl)c3)C2)n1", "stereo": "centres unmarked", "A": 18.07, "B": -46.43, "C": 6.078}
{"smiles": "Cc1nn(C)c(N2CCOCC2)c1CN[C@@H]1c2ccccc2C[C@@H]1O", "A": 2.083, "C": 30.47}
{"smiles": "COCCOc1ccc(NC(=O)C2CC(=O)N(C)C2)cn1", "stereo": "centres unmarked", "B": -34.79, "C": 7.363}
{"smiles": "COCCc1noc(Cn2ccc3ccccc3c2=O)n1", "A": 8.221, "B": 0.03296, "C": 2.852}
{"smiles": "COCCNC(=O)c1ccccc1-n1cc(CN)cn1", "A": -5.25, "B": -18.66, "C": -4.022}
{"smiles": "CCOC(=O)C1CCCN(Cc2c[nH]nc2-c2cc3ccccc3o2)C1", "stereo": "centres unmarked", "A": 19.29, "B": 15.89, "C": 6.23}
{"smiles": "c1ccc(CNC[C@H]2Cn3ccnc3CO2)cc1", "A": -6.887, "B": -9.174, "C": 4.668}

The last 2 entries again:

* CCOC(=O)C1CCCN(Cc2c[nH]nc2-c2cc3ccccc3o2)C1 (centres unmarked) | A: 19.29%; B: 15.89%; C: 6.23%
* c1ccc(CNC[C@H]2Cn3ccnc3CO2)cc1 | A: -6.887%; B: -9.174%; C: 4.668%

Source: ChEMBL document CHEMBL3988442, “University of Dundee, Small-Polar-MMV Screening Library” (2021).